Reference: patent US20240302348A1
These are yes or no findings as the source states them, for the method shown. Some entries that bind do so weakly or less than the wild type.

Biological target: T1, human B7-H4 (V-set domain-containing T-cell activation inhibitor 1) (human) (UniProt Q7Z7D3)
T1 sequence: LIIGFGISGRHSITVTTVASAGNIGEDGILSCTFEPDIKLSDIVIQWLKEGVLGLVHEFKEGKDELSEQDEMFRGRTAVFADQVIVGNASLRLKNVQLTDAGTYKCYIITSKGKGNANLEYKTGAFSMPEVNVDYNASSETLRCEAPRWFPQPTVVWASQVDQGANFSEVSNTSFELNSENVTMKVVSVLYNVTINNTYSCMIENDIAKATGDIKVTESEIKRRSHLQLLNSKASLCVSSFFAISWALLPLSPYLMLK
Assay: IHC for bound IgG, membrane optical density, xenograft tumors

B1: the ADC without payload (anti-B7H4 ADC antibody without cytotoxic payload) (antibody, human IgG1, kappa, V domains shown)
VH: QVQLQQWGAGLLKPSETLSLACTVYGGSFSGYYWNWIRQPPGKGLEWIGEINHSGSTSYNPSLKSRVTISVDTSKNQFSLKLSSVTAADTAVYYCARVLYNWNVDSWGQGTLVTVSS
VL: DIQMTQSPSSLSASVGDRVTITCRASQDIRNDVGWYQQKPGKAPKRLIYAASRLQSGVPSRFSGSGSGTEFTLTISSLQPEDFATYYCLQHNSYPRTFGQGTKVEIKR
binding: binds
